PubChem BioAssay AID1259308 | NCATS | 2017
Shown is an unselected part of about 59,000 reagents. Over the whole deposit, about 1,510 (2.6%) were called active. 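Calls use total luciferase alone and ignore viability, so some active siRNAs may act by altering cell number.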 The numbers tell different reagents against one gene apart. Further read-outs or replicates are left out here.

- Aim: 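Knock-downs that increase output of a recombinant reporter protein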 (primary screen)
- Cells: human HEK293 embryonic kidney cells stably expressing firefly luciferase (HEK-CMV-Luc2-Hygro)
- Reagents: single siRNA against human genes, 0.8 pmol siRNA per well
- Timing: 72 h
- Measured: 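Luciferase light (ONE-Glo) measured on one replicate plate set and viability (CellTiter-Glo) on the other, scaled to a negative control siRNA, with robust z-scores and luciferase per cell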
- Direction: total luciferase, z-score and total luciferase, % of control: higher = more reporter protein produced
- Rule for the call: 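An siRNA counts as active if its total luciferase robust z-score exceeds 3; genes with two or more such siRNAs out of three were retested with fresh siRNAs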
- Calls: active = raised luciferase; inactive = no rise

gene | reagent no. | total luciferase, z-score | total luciferase, % of control | call
STRA6 (GeneID 64220) | 1 | 1.51 | 112 | inactive
STRA6 (GeneID 64220) | 2 | 0.213 | 86.1 | inactive
STRA6 (GeneID 64220) | 3 | -0.263 | 76.7 | inactive
OR2M5 (GeneID 127059) | 1 | 0.476 | 91.4 | inactive
OR2M5 (GeneID 127059) | 2 | 0.0583 | 83 | inactive
OR2M5 (GeneID 127059) | 3 | 0.307 | 88 | inactive
SERPINB2 (GeneID 5055) | 1 | -0.466 | 72.6 | inactive
SERPINB2 (GeneID 5055) | 2 | 0.929 | 100 | inactive
SERPINB2 (GeneID 5055) | 3 | -0.836 | 65.3 | inactive
CMAS (GeneID 55907) | 1 | -1.75 | 47.1 | inactive
CMAS (GeneID 55907) | 2 | -1.03 | 61.4 | inactive
CMAS (GeneID 55907) | 3 | 0.455 | 90.9 | inactive
CD248 (GeneID 57124) | 1 | 0.54 | 92.6 | inactive
CD248 (GeneID 57124) | 2 | -0.887 | 64.2 | inactive
CD248 (GeneID 57124) | 3 | -2.67 | 28.9 | inactive
LPCAT4 (GeneID 254531) | 1 | 4.41 | 170 | active
LPCAT4 (GeneID 254531) | 2 | -0.293 | 76.1 | inactive
LPCAT4 (GeneID 254531) | 3 | -0.998 | 62 | inactive
MYH4 (GeneID 4622) | 1 | -1.87 | 44.7 | inactive
MYH4 (GeneID 4622) | 2 | -1.3 | 56.1 | inactive
MYH4 (GeneID 4622) | 3 | -0.531 | 71.3 | inactive
TFAP2E (GeneID 339488) | 1 | 1.03 | 102 | inactive
TFAP2E (GeneID 339488) | 2 | 1.03 | 102 | inactive
TFAP2E (GeneID 339488) | 3 | -1.39 | 54.1 | inactive
DOCK3 (GeneID 1795) | 1 | 0.00967 | 82.1 | inactive
DOCK3 (GeneID 1795) | 2 | -0.415 | 73.6 | inactive
DOCK3 (GeneID 1795) | 3 | -0.588 | 70.2 | inactive
ME2 (GeneID 4200) | 1 | -0.595 | 70.1 | inactive
ME2 (GeneID 4200) | 2 | -1.14 | 59.3 | inactive
ME2 (GeneID 4200) | 3 | -0.0187 | 81.5 | inactive
CA12 (GeneID 771) | 1 | -0.134 | 79.2 | inactive
CA12 (GeneID 771) | 2 | 0.968 | 101 | inactive
CA12 (GeneID 771) | 3 | -0.683 | 68.3 | inactive
CD40 (GeneID 958) | 1 | -1.11 | 59.9 | inactive
CD40 (GeneID 958) | 2 | 1.11 | 104 | inactive
CD40 (GeneID 958) | 3 | -0.633 | 69.3 | inactive
SELENOH (GeneID 280636) | 1 | 1.39 | 110 | inactive
SELENOH (GeneID 280636) | 2 | -0.99 | 62.2 | inactive
SELENOH (GeneID 280636) | 3 | 2.79 | 137 | inactive
LIPH (GeneID 200879) | 1 | -0.433 | 73.3 | inactive
LIPH (GeneID 200879) | 2 | 0.571 | 93.2 | inactive
LIPH (GeneID 200879) | 3 | -0.968 | 62.6 | inactive
AP1S2 (GeneID 8905) | 1 | 1.88 | 119 | inactive
AP1S2 (GeneID 8905) | 2 | -0.385 | 74.2 | inactive
AP1S2 (GeneID 8905) | 3 | -0.48 | 72.3 | inactive
PSAP (GeneID 5660) | 1 | -1.15 | 59 | inactive
PSAP (GeneID 5660) | 2 | -0.417 | 73.6 | inactive
PSAP (GeneID 5660) | 3 | -1.38 | 54.4 | inactive
TAC4 (GeneID 255061) | 1 | -0.585 | 70.2 | inactive
TAC4 (GeneID 255061) | 2 | 1.53 | 112 | inactive
TAC4 (GeneID 255061) | 3 | -0.295 | 76 | inactive
SLC17A8 (GeneID 246213) | 1 | -1.72 | 47.7 | inactive
SLC17A8 (GeneID 246213) | 2 | -0.831 | 65.4 | inactive
SLC17A8 (GeneID 246213) | 3 | -0.261 | 76.7 | inactive
EDDM3B (GeneID 64184) | 1 | 1.42 | 110 | inactive
EDDM3B (GeneID 64184) | 2 | -2.22 | 37.8 | inactive
EDDM3B (GeneID 64184) | 3 | -0.093 | 80 | inactive

Active calls (from the list above):
gene | reagent no. | total luciferase, z-score | total luciferase, % of control | call
LPCAT4 (GeneID 254531) | 1 | 4.41 | 170 | active
